Patent US11717531B2, “Preeclampsia” (ASTON UNIVERSITY, priority 2015, dated 2023)
At least one compound was matched to its structure with a doubt left.

Test system: sFlt-1
Assay: sFlt-1 release from HUVEC, ELISA of conditioned media
Assay type: cell-based, human
Details: pravastatin at both 2 uM and 20 uM, 24 hours
Protocol: Human umbilical vein endothelial cells (HUVECs) were isolated and cultured in M199 medium as described previously (Bussolati et al, 2001). Experiments were performed on third or fourth passage HUVEC.
Chemically synthesized double-stranded microRNA mimic and single-stranded inhibitor against miR-122 (mi-122 and anti-122) and miR-374b (mi-374b and anti-374b) were purchased from Qiagen and the efficiency was tested by Qpcr (FIG. 6A, B). HUVECs were trypsinized, and 1×10^6 cells were electroporated with ≈0.6 ug mimic-122 or mimic-374b, =3 ug anti-122 or anti-374 or control molecules using electroporation (Amaxa GmbH, Cologne, Germany) as described previously (Cudmore et al., 2007).
Enzyme-linked immunosorbent assay (ELISA) kits for human sFlt-1 was obtained from R&D Systems and performed according to the manufacturer's specifications.
Enzyme-linked immunosorbent assay (ELISA) kits for human sFlt-1, sEng and P1GF were obtained from R&D Systems and performed according to the manufacturer's specifications.

`CC[C@H](C)C(=O)O[C@H]1C[C@H](O)C=C2C=C[C@H](C)[C@H](CC[C@@H](O)C[C@@H](O)CC(=O)O)[C@H]21` [pravastatin] was tested, and the sFlt-1 level was “decreased”.
